In article PMC12442009 (ACS Applied Materials & Interfaces, 2025):
For some of these results: Some peptides are written in HELM: one residue between dots, names in brackets for other building blocks, links after the first $.

Experiments:
NCI/ADR-RES cells = assay: Confocal microscopy internalization and colocalization; conditions: 100 μM
[1] = general procedure: Fmoc solid-phase peptide synthesis; Rink Amide resin (100-200 mesh; 0.64 mmol/g); N-HBTU; PyAOP/DIEA for on-resin cyclization

Compound: COc1cccc2c1C(=O)c1c(O)c3c(c(O)c1C2=O)C[C@@](O)(C(CO)=NNC(=O)CCCCCN1C(=O)CC(SC[C@H]2NC(=O)[C@H](CCC(N)=O)NC(=O)[C@@H](CCCCN)NC(=O)[C@H](Cc4cn(CCCCC(=O)NCCNc5ccc([N+](=O)[O-])c6nonc56)nn4)NC(=O)[C@@H](Cc4c[nH]c5ccccc45)NC(=O)[C@H](CO)NC(=O)[C@@H](CCCCN)NC(=O)[C@H](CO)NC2=O)C1=O)C[C@@H]3O[C@H]1C[C@H](N)[C@H](O)[C@H](C)O1 (stereo partly shown) [CP1T NBD -DOX]
- Pearson correlation coefficient (PCC), DOX and NBD fluorescence colocalization (NCI/ADR-RES cells; 2 h): 0.66 ± 0.01
- Pearson correlation coefficient (PCC), NBD and LysoTracker Deep Red colocalization (NCI/ADR-RES cells; 2 h): 0.54 ± 0.06
- Pearson correlation coefficient (PCC), DOX and NBD fluorescence colocalization (NCI/ADR-RES cells; 24 h): 0.61±0.11
- Pearson correlation coefficient (PCC), DOX and NBD fluorescence colocalization (NCI/ADR-RES cells; 48 h): 0.62±0.02

Compound: PEPTIDE1{Q.[dC].S.[dK].S.[dW].[Prg].[dK]}$PEPTIDE1,PEPTIDE1,8:R2-1:R1$$$V2.0
- isolated yield ([1]; whole synthesis, overall, scale 400 mg of resin, 0.64 mmol·g-1): 14%
- isolated mass ([1]; whole synthesis, scale 400 mg of resin, 0.64 mmol·g-1): 34 mg

Compound: PEPTIDE1{Q.[dCys(MC-DOX)].S.[dK].S.[dW].[Prg(T6)].[dK]}$PEPTIDE1,PEPTIDE1,1:R1-8:R2$$$V2.0
- conjugation yield ([1]; conjugation step): 94%
